Test results reported in US20200270125A1.
Numbering of substitutions follows the chain as printed. Read-outs that look alike come from different tables or passages of the source. These are yes or no findings as the source states them, for the method shown. Some entries that bind do so weakly or less than the wild type.

Legend:
[1] = biological target: human MASP-3 (construct not stated) (human); test: FACS histogram of DTLacO cells displaying clone M3J5, stained with MASP-3 antigen; grey filled curve is the IgG1-stained negative control
[2] = biological target: human MASP-3 (construct not stated) (human); test: FACS, DTLacO cells stained with labelled MASP-3
[3] = biological target: human MASP-3 (construct not stated) (human); test: saturation binding by flow cytometry: DTLacO cells expressing the antibody stained with various concentrations of fluorescent-labeled soluble MASP-3 antigen
[4] = biological target: human MASP-3 (construct not stated) (human); test: DTLacO screen
[5] = biological target: human MASP-3 (construct not stated) (human); test: FACS histogram of DTLacO cells displaying clone M3M1, stained with MASP-3 antigen; grey filled curve is the IgG1-stained negative control
[6] = biological target: human MASP-3 (construct not stated) (human)
[7] = biological target: human MASP-3 (construct not stated) (human); remark: listed apart in the source
[8] = biological target: human MASP-3 (construct not stated) (human); test: cross-species binding, ranking of Fab binding
[9] = biological target: recombinant rat MASP-3 (rat); test: cross-species binding, ranking of Fab binding
[10] = biological target: recombinant cynomolgus monkey MASP-3 (cynomolgus monkey); test: cross-species binding, ranking of Fab binding
[11] = biological target: recombinant rat MASP-3 (rat); test: cross-species binding experiments
[12] = biological target: recombinant cynomolgus monkey MASP-3 (cynomolgus monkey); test: cross-species binding experiments

Measured: binding

B1: MASP-3 specific clone M3J5 (antibody, V domains shown)
VH: AVTLDESGGGLQTPGGGLSLVCKASGFTFSSYAMGWMRQAPGKGLEYVAGIRSDGSFTLYATAVKGRATISRDNGQSTVRLQLNNLRAEDTATYFCTRSGNVGDIDAWGHGTEVIVSS
VL: ALTQPASVSANPGETVKITCSGGYSGYAGSYYYGWYQQKAPGSAPVTLIYYNNKRPSDIPSRFSGSLSGSTNTLTITGVRADDEAVYFCGSADNSGAAFGAGTTLTVL
binds: [1] | [2] | [3] | [4]

B2: MASP-3 specific clone M3M1 (antibody, V domains shown)
VH: AVTLDESGGGLQTPGGGLSLVCKASGFDFSSYQMNWIRQAPGKGLEFVAAINRFGNSTGHGAAVKGRVTISRDDGQSTVRLQLSNLRAEDTATYYCAKGVYGYCGSYSCCGVDTIDAWGHGTEVIVSS
VL: ALTQPASVSANPGETVKITCSGGGSYAGSYYYGWYQQKAPGSAPVTLIYYNNKRPSDIPSRFSGSLSGSTNTLTITGVRADDEAVYFCGSADNSGAAFGAGTTLTVL
binds: [5] | [2] | [6] | [4]

B3: MASP-3 clone D14 (antibody, human IgG1, V domains shown)
VH: AVTLDESGGGLQTPGGALSLVCKASGFTFSSYAMHWVRQAPGKGLEWVAGIYKSGAGTNYAPAVKGRATISRDNGQSTVRLQLNNLRAEDTGTYYCAKTTGSGCSSGYRAEYIDAWGHGTEVIVSS
VL: B2 VL
binds: [7] | [4]

B4: 13B1 Parental Fab (Fab, V domains shown)
VH: QVQLKQSGAELMKPGASVKLSCKATGYTFTGKWIEWVKQRPGHGLEWIGEILPGTGSTNYNEKFKGKATFTADSSSNTAYMQLSSLTTEDSAMYYCLRSEDVWGTGTTVTVSS
VL: DIVMTQSPSSLAVSAGEKVTMSCKSSQSLLNSRTRKNYLAWYQQKPGQSPKLLIYWASTRESGVPDRFTGSGSGTDFTLTISSVQAEDLAVYYCKQSYNIPTFGGGTKLEIKR
binds: [8] | [9] | [10] | [11] | [12]

B5: 4D5 Parental Fab (Fab, V domains shown)
VH: QVQLKQSGPELVKPGASVKLSCKASGYTFTTDDINWVKQRPGQGLEWIGWIYPRDDRTKYNDKFKDKATLTVDTSSNTAYMDLHSLTSEDSAVYFCSSLEDTYWGQGTLVAVSS
VL: B4 VL with S22T, T78S, I100L, P101Y
binds: [8] | [9] | [10] | [11] | [12]

B6: MASP-1 clone 1E10 (antibody, human IgG1, V domains shown)
VH: AVTLDESGGGLQTPGGALSLVCKASGFTFSSYDMVWVRQAPGKGLEFVAGISRNDGRYTEYGSAVKGRATISRDNGQSTVRLQLNNLRAEDTATYYCARDAGGSAYWFDAGQIDAWGHGTEVIVSS
VL: B2 VL
binds: [4]
